By UniProt entry, the sequences of proteins in these tests, tags left out. Where a name states a change or a piece, a line headed by the entry shows the natural chain unless it says otherwise.
UniProt P31266: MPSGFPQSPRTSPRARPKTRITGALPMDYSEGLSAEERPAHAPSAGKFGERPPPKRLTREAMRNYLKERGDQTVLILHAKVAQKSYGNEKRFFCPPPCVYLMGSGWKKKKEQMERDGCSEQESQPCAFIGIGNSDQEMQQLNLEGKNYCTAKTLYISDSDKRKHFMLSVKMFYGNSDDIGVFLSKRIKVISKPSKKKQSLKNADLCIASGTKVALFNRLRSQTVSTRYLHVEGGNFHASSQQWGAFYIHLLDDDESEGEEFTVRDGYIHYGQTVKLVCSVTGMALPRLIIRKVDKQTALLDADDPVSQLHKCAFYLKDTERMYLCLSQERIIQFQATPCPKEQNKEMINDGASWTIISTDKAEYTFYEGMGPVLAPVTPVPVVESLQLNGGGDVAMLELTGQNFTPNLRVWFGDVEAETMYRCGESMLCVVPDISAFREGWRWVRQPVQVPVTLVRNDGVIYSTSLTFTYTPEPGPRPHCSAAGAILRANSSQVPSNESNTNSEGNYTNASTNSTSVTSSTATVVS

These are yes or no findings as the source states them, for the method shown. Some results given as binding are weak or reduced against the parent protein; the word gives no strength.
Each substance was assayed against T1, RITA1 (pEG202 two-hybrid construct) (UniProt Q96K30) (assay: two-hybrid; Golemis-Brent hybrid system, EGY48 yeast cells; Rbpj constructs in pJG4-5 (transactivation domain), partners in pEG202 (LexA DNA binding); performed twice and in triplicate).
T1 sequence: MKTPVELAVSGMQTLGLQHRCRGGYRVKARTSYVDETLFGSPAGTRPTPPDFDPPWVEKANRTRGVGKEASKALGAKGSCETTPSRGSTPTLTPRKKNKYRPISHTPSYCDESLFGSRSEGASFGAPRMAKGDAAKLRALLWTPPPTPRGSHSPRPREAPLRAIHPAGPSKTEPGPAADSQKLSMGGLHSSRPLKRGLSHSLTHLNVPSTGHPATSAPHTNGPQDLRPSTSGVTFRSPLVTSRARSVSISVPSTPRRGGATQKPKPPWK
In the case of “murine Rbpj, wildtype (pJG4-5 two-hybrid construct) (from UniProt P31266 1-526)”, the binding is reported as “binds”. With “murine Rbpj^FAL (F261A, A284V, L388A), pJG4-5 two-hybrid construct (from UniProt P31266 1-526)” the binding was “no binding”. For “murine Rbpj^EEFAL (E259A, E260A, F261A, A284V, L388A), pJG4-5 two-hybrid construct (from UniProt P31266 1-526)”, the binding was “no binding”.
